In paper PMC7819943, “Rice protein-binding microarrays: a tool to detect cis-acting elements near promoter regions in rice”:
The other results are listed elsewhere or left out.

The sequences below were run against T1, OsSMF1 (Oryza sativa, UniProt Q6ZLB0 1-436) (assay: protein-binding microarray (RPBM); PBS, 2% BSA, 51.3 ng/ul salmon testes DNA, 50 uM zinc acetate, 200 nM TF, 25 C, 1 h; high values mean tight binding). Details: protein: recombinant; tags: N-terminal polyhistidine and DsRed monomer fusion (pET32a); chain copies: 2; label: CyDye5-dUTP incorporated in the synthesized complementary strand; 3' TTTTT single-stranded linker to array surface; dsDNA, one strand shown.
T1 sequence: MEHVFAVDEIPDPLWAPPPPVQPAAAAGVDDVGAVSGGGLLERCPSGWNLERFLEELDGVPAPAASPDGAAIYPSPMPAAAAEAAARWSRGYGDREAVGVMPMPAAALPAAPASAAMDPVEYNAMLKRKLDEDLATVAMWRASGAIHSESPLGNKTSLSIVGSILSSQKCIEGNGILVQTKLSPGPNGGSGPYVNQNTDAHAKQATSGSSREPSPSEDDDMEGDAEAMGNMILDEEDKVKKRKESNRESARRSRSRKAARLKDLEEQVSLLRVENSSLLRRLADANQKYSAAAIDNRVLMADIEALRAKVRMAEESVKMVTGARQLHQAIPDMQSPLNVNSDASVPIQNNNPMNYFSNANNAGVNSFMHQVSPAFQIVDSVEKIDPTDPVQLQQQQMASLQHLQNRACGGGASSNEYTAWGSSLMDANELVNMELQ
Method in brief: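 The binding signal is fluorescence intensity per feature, in arbitrary units, read on an Axon 4000B scanner. Polyhistidine- and DsRed-tagged transcription factors (N-terminal fusions) from E. coli BL21-CodonPlus were purified on Ni–NTA and applied at 200 nM for 1 h at 25 °C to a double-stranded, BSA-blocked custom Agilent array in buffer with 50 µM zinc acetate.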
With “AACGTATGCTTGGTTGAGTTTTAATTATTACACACTTCAACGGAGTCACCTAGTGCAG” the binding signal was 3800 fluorescence intensity (a.u.). For “GTTTGGGCACACTGACTGACTGGCGGGCCCCACGTGTCAGCGGAGTCACCTAGTGCAG”, the binding signal was 5930 fluorescence intensity (a.u.). “AATCTGCCGTACTAAAATAAATAGAAAATATTTTATGGACCGGAGTCACCTAGTGCAG” was tested, and the binding signal was 17600 fluorescence intensity (a.u.). For “AACTTAAGTAGTGGATTGAACCTTACGTGGTACTGTACTACGGAGTCACCTAGTGCAG”, the binding signal was 3790 fluorescence intensity (a.u.). With “AATTCCCATTTCCGTCACGACTCTGACTGCCCTCGCTAATCGGAGTCACCTAGTGCAG” the binding signal was 3320 fluorescence intensity (a.u.). With “GCTAAAGTTTAGCAGGGCTGGGACGTCAGCGCCATGCTAACGGAGTCACCTAGTGCAG” the binding signal was 3730 fluorescence intensity (a.u.). With “CTTTCTCGGTTGCTGCTCGGCTCGCGTGTCGCATATGACGCGGAGTCACCTAGTGCAG” the binding signal was 3830 fluorescence intensity (a.u.). With “CAAGACACGTACCGCATCTGGATAATGCCACCGGCAAGACCGGAGTCACCTAGTGCAG” the binding signal was 3340 fluorescence intensity (a.u.). With “GCTTCGTCGACCACCTCCTCATCGTGGCGCTCGACGACGGCGGAGTCACCTAGTGCAG” the binding signal was 3560 fluorescence intensity (a.u.). “GCCGCCGCCTCATATCCCTCGTGACCTCGTCGCCGATCACCGGAGTCACCTAGTGCAG” was tested, and the binding signal was 6270 fluorescence intensity (a.u.). In the case of “CCGTTAACACTAGTTGTTTCATATGTGATAGCGATATGTTCGGAGTCACCTAGTGCAG”, the binding signal is reported as 21000 fluorescence intensity (a.u.). In the case of “AACCGAGCTCCGCAGCGAAGAGGAGTGTGGGGTTGAGGAACGGAGTCACCTAGTGCAG”, the binding signal is reported as 3240 fluorescence intensity (a.u.). In the case of “TTAAGTGATCAAATTAAGTTATCTCCTGATGACTTTGCAACGGAGTCACCTAGTGCAG”, the binding signal is reported as 9120 fluorescence intensity (a.u.). “TTCCTCACCGGCCACGCCTCTCTCGCCACGCCTCTTCTCCCGGAGTCACCTAGTGCAG” was tested, and the binding signal was 3760 fluorescence intensity (a.u.). For “TATATAAGAGACCTCACCTCCAAGAATCTCCAGAGAGAGACGGAGTCACCTAGTGCAG”, the binding signal was 22900 fluorescence intensity (a.u.). For “GGTGGCGGGCGGAGGCGGGAGGGAGGTGACATGGATGGTCCGGAGTCACCTAGTGCAG”, the binding signal was 8100 fluorescence intensity (a.u.). With “CGCCGACGAGCCATGGACTCCTGCATCGAAGCACTGCCACCGGAGTCACCTAGTGCAG” the binding signal was 11000 fluorescence intensity (a.u.). For “CGCCCCGCTGTAATCTCGTACCGCGTCATCTCGCGGAGACCGGAGTCACCTAGTGCAG”, the binding signal was 5650 fluorescence intensity (a.u.). In the case of “TGAAACCTTATGTAGTTATGCAACGTAAGAACCTGTTCGGCGGAGTCACCTAGTGCAG”, the binding signal is reported as 3260 fluorescence intensity (a.u.). For “CAAGCCGACGTATCATGCTGACATGTCCCTCCGTCCCTCGCGGAGTCACCTAGTGCAG”, the binding signal was 10500 fluorescence intensity (a.u.). With “GTCCTAAAGTACTTATTGTGTCCGGTTTTGGTTAGTTAAGCGGAGTCACCTAGTGCAG” the binding signal was 3210 fluorescence intensity (a.u.). In the case of “CGTTGTGGAGAATCTCTTTGCCAGCGGGGCGTAGGTTGAGCGGAGTCACCTAGTGCAG”, the binding signal is reported as 3780 fluorescence intensity (a.u.). “ACAGGAGTTCTTCTGATTACTCGTGGCCAAGAAAACTCGACGGAGTCACCTAGTGCAG” was tested, and the binding signal was 3200 fluorescence intensity (a.u.). “ATTTTCAGGAAATTCAAACACCGCCTAGGTGATGACATTGCGGAGTCACCTAGTGCAG” was tested, and the binding signal was 3720 fluorescence intensity (a.u.). With “GGTTGAATCAAATTGTTCCTCTGTTACACTTACACATCATCGGAGTCACCTAGTGCAG” the binding signal was 3250 fluorescence intensity (a.u.). “CCTCGCCTCTCCTCGCCGGTTCGCCGTCGCGGCCGCCTCCCGGAGTCACCTAGTGCAG” was tested, and the binding signal was 3550 fluorescence intensity (a.u.). “GATGGAGGCGAACGTCGACCCCATGATGAGGTGGGGTCATCGGAGTCACCTAGTGCAG” was tested, and the binding signal was 3220 fluorescence intensity (a.u.). With “TCCCACCACCACACAAATCCACGCCCGCACTACTGCCACCCGGAGTCACCTAGTGCAG” the binding signal was 3880 fluorescence intensity (a.u.). “TTCGCCAGTAGAATGACACTGATTTTCTATGGCCTCTTAGCGGAGTCACCTAGTGCAG” was tested, and the binding signal was 3510 fluorescence intensity (a.u.). With “GAGCAACTTTGATAGTGCCTGCATGCTCATGTGTTGGCAGCGGAGTCACCTAGTGCAG” the binding signal was 4200 fluorescence intensity (a.u.). “ATGGGTCTGGTGAGTCAAGAACCTGCCCTCTTCAACGACACGGAGTCACCTAGTGCAG” was tested, and the binding signal was 4720 fluorescence intensity (a.u.). In the case of “TTAGGCCAAGTATGGGGTTGGGGCTATGGAGGAGAAGGGCCGGAGTCACCTAGTGCAG”, the binding signal is reported as 3320 fluorescence intensity (a.u.). For “TCGTCATCCCAGAGGGCGGCGAAAGTGACGTGGCAGACGGCGGAGTCACCTAGTGCAG”, the binding signal was 28000 fluorescence intensity (a.u.). For “CTATCATACATGCGGAATATGAGTTGTCAGATTGTCTAATCGGAGTCACCTAGTGCAG”, the binding signal was 33700 fluorescence intensity (a.u.). With “TATATATAGATACTATACTACACGTGGGGTGCGTTGTATTCGGAGTCACCTAGTGCAG” the binding signal was 6770 fluorescence intensity (a.u.). With “GCGGCCGTGGTCACCGCACGCGCGCGTGCAGCATGTCGCCCGGAGTCACCTAGTGCAG” the binding signal was 3210 fluorescence intensity (a.u.). For “CAAGGGAGGAGGGAGAAAGAAAAGGATGGGAGATTTGCTCCGGAGTCACCTAGTGCAG”, the binding signal was 3290 fluorescence intensity (a.u.). With “GCCCTCCACGCGTCGTTGAGTCTCGGGACACGTCCCAGTCCGGAGTCACCTAGTGCAG” the binding signal was 4380 fluorescence intensity (a.u.). In the case of “ATTAGTTCGAGGGTTTCGTGCGCTGGCAGGCGGACCGGGCCGGAGTCACCTAGTGCAG”, the binding signal is reported as 3370 fluorescence intensity (a.u.). With “CTGTCACGTGGAACCCACCTGTCATCCGGCCCAAAGAAACCGGAGTCACCTAGTGCAG” the binding signal was 5060 fluorescence intensity (a.u.). “GAGAGGGCAGCAGAACGCGCCGGCCGGCGTGATGCTGCGGCGGAGTCACCTAGTGCAG” was tested, and the binding signal was 3580 fluorescence intensity (a.u.). “TCAGAATCAACTGTTGAGTAATATAGTGAAATTTTGTGGTCGGAGTCACCTAGTGCAG” was tested, and the binding signal was 29400 fluorescence intensity (a.u.).
